Results on 1 compound are retold here after patent US9670363B2, “Substituted anthraquinone dyes for cellular stains and enzyme detection” (Biotium, Inc., priority 2011, dated 2017).

Each structure is given as a SMILES string.

For the data set, the system named is calf thymus DNA. Description: Absorption and emission spectra in the presence of DNA. The data set is classed as physicochemical. As to conditions: Dye 1 uM, 40 ug/mL calf thymus DNA.

As to `CN(C)CCNc1ccc(O)c2c1C(=O)c1c(O)ccc(NCCNC(=N)CCCCC(=N)NCCNc3ccc(O)c4c3C(=O)c3c(O)ccc(NCCN(C)C)c3C4=O)c1C2=O` [Dye No. 7], the “absorption spectrum (excitability)” value was “excitable by common laser lines at 633, 635, 640 and 647 nm”; the fluorescence emission region result is “far-red to near-IR region”.
